Values from PubChem BioAssay AID1224826 (NIAID, 2016).
Aim: 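Genes that change LPS-induced Tnf promoter activity in mouse macrophages when knocked down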 (primary screen). Cell system: RAW264.7 G9 macrophages from mouse bearing reporters for p65 (GFP) and the Tnf promoter (mCherry). Knock-down reagent: siRNA pool against mouse genes, 100 nM. Duration: 16 h of LPS stimulation, after 2 days of siRNA transfection. Treatment: bacterial lipopolysaccharide (Salmonella minnesota R595), 10 ng/ml. Measured: 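Imaged Tnf reporter mCherry in nuclei, minus background, normalised per plate to the median and expressed as robust z-scores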. Reading the numbers: Tnf reporter robust z-score: higher = stronger Tnf promoter reporter signal after LPS; Tnf reporter intensity: higher = stronger Tnf promoter reporter signal. Call rule: 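a well counts as active at a score of -1.3 or below (Tlr4 knock-down control median) or above 3 (raised signal); controls and wells holding fewer than 50 cells are excluded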. Meaning of the calls: active = Tnf reporter clearly lowered or raised; inactive = no clear change in Tnf reporter.
This is one part, drawn at random, of about 17,000 reagents tested. About 1,110 of them (6.6%) were called active. 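Active means lowered or raised reporter signal; replicate intensities are raw and not normalised per plate.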 Further read-outs or replicates are left out here.

| gene knocked down | Tnf reporter robust z-score | fewer than 50 cells in well | Tnf reporter intensity, replicate 1 | Outcome |
| --- | --- | --- | --- | --- |
| Acvrl1 | -1.64 | enough cells in well | 81.8 | active |
| Hk1 | -0.18 | enough cells in well | 197 | inactive |
| Hbb-y | -0.96 | enough cells in well | 168 | inactive |
| Or5b94 | -0.41 | enough cells in well | 156 | inactive |
| Drc5 | -1.06 | enough cells in well | 77.5 | inactive |
| Or5g9 | 0.53 | enough cells in well | 215 | inactive |
| Mras | -0.37 | enough cells in well | 218 | inactive |
| Irak2 | 0.56 | enough cells in well | 150 | inactive |
| Patj | 0.27 | enough cells in well | 159 | inactive |
| Neu1 | -1.51 | enough cells in well | 146 | active |
| Bptf | -0.66 | enough cells in well | 185 | inactive |
| Micu2 | -1.01 | enough cells in well | 190 | inactive |
| Synpo2l | 1.99 | enough cells in well | 183 | inactive |
| Fdxacb1 | -0.5 | enough cells in well | 157 | inactive |
| Pdxdc1 | -1.26 | enough cells in well | 70.3 | inactive |
| Tspan8 | -0.34 | enough cells in well | 104 | inactive |
| Ahsa1 | 0.85 | enough cells in well | 238 | inactive |
| Cdkn2d | 2.47 | enough cells in well | 378 | inactive |
| Tmem119 | -0.36 | enough cells in well | 177 | inactive |
| Ptgir | -0.71 | enough cells in well | 233 | inactive |
| Ppp1r12b | 0.8 | enough cells in well | 200 | inactive |
| Tmem63c | 1.49 | enough cells in well | 245 | inactive |
| Gpr84 | -0.47 | enough cells in well | 172 | inactive |
| Polr3f | 1.04 | enough cells in well | 232 | inactive |
| Gpr139 | -0.93 | enough cells in well | 132 | inactive |
| Lrit2 | 0.15 | enough cells in well | 135 | inactive |
| Cux2 | -0.98 | enough cells in well | 120 | inactive |
| Dohh | 1.66 | enough cells in well | 332 | inactive |
| Pcdhgb7 | -1.17 | enough cells in well | 77.9 | inactive |
| Polr3d | -0.88 | enough cells in well | 179 | inactive |
| Inhbe | -1.09 | enough cells in well | 153 | inactive |
| Gtf2e1 | -0.82 | enough cells in well | 186 | inactive |
| Mzt2 | 0.39 | enough cells in well | 264 | inactive |
| Rnft2 | 0.67 | enough cells in well | 260 | inactive |
| Ints15 | 0.11 | enough cells in well | 187 | inactive |
| Or6z1 | 0.7 | enough cells in well | 205 | inactive |
| Chrm4 | -0.01 | enough cells in well | 236 | inactive |
| Timp3 | 0.94 | enough cells in well | 295 | inactive |
| Hs1bp3 | -1.47 | enough cells in well | 133 | active |
| Pced1b | -0.63 | enough cells in well | 207 | inactive |
| Cd200r1 | 0.21 | enough cells in well | 309 | inactive |
| Tas2r104 | – | fewer than 50 cells per well; well left out of calls | 63.3 | inactive |
| Vmn1r233 | -0.84 | enough cells in well | 195 | inactive |
| Styx | -0.07 | enough cells in well | 308 | inactive |
| Or5b106 | 0.13 | enough cells in well | 175 | inactive |
| Or4l15 | – | fewer than 50 cells per well; well left out of calls | 246 | inactive |
| Map2k1 | -0.87 | enough cells in well | 138 | inactive |
| Krtap1-5 | – | fewer than 50 cells per well; well left out of calls | 80.6 | inactive |
| Cryaa | -1.02 | enough cells in well | 165 | inactive |
| Sec22a | 0.39 | enough cells in well | 128 | inactive |
| Penk | -0.14 | enough cells in well | 222 | inactive |
| Aph1a | 2.28 | enough cells in well | 386 | inactive |
| Lpar6 | 0.59 | enough cells in well | 362 | inactive |
| Tti1 | 0.36 | enough cells in well | 278 | inactive |
| Ubald2 | – | fewer than 50 cells per well; well left out of calls | 145 | inactive |
| Nars1 | -1.24 | enough cells in well | 130 | inactive |
| Cat | 2.47 | enough cells in well | 435 | inactive |
| Tbx2 | -0.84 | enough cells in well | 162 | inactive |

Ordered by “Tnf reporter intensity, replicate 1” (highest first): some entries from above
| gene knocked down | Tnf reporter robust z-score | fewer than 50 cells in well | Tnf reporter intensity, replicate 1 | Outcome |
| --- | --- | --- | --- | --- |
| Cdkn2d | 2.47 | enough cells in well | 378 | inactive |
| Ptgir | -0.71 | enough cells in well | 233 | inactive |
| Ppp1r12b | 0.8 | enough cells in well | 200 | inactive |
| Tmem119 | -0.36 | enough cells in well | 177 | inactive |
